In assay [1] the target is Cynomolgus CD47-His (cynomolgus). The assay is described as follows: ELISA, cynomolgus CD47-His coated.
Assay [2] shares this target. The assay is described as follows: ELISA on coated cynomolgus CD47-His, anti-human IgG HRP, OD450. Background: In an ELISA, binding on a coated surface is turned into a signal by an enzyme label.
Assay [3] deals with PD-L1 molecules (screening ELISA of Example 12) (human) (UniProt Q9NZQ7). The assay is described as follows: ELISA of hybridoma supernatant, binding to PD-L1 molecules.

Sequences of proteins named here, by UniProt entry; tags and fusion partners are left off.
UniProt Q9NZQ7: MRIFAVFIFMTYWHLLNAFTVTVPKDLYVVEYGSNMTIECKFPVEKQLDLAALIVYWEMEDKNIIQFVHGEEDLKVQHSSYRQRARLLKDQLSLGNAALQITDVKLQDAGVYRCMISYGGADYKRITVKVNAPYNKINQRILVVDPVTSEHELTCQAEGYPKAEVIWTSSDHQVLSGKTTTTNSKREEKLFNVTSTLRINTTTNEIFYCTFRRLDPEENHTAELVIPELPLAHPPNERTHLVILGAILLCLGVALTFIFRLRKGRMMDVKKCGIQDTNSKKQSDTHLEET

No constants are given. Whether binding was seen depends on the method and setting. Some entries that bind do so weakly or less than the wild type.

B1: AB6.12-IgG4P (antibody, V domains shown)
VH: QMQLVQSGAEVKKTGSSVKVSCKASGFNIKDYYLHWVRQAPGQALEWMGWIDPDQGDTEYAQKFQDRVTITRDRSMSTAYMELSSLRSEDTAMYYCNAAYGSSSYPMDYWGQGTTVTVSS
VL: NIQMTQSPSAMSASVGDRVTITCKASQDIHRYLSWFQQKPGKVPKHLIYRANRLVSGVPSRFSGSGSGTEFTLTISSLQPEDFATYYCLQYDEFPYTFGGGTKVEIKR
Consider B1, for which the binding entry in assay [1] and in assay [2] was “binds” throughout.

B2: SHS009PL-15 (antibody, V domains shown)
VH: EVQLQESGPGLAKPSQTLSLTCSVTGYSITSDYWNWIRKFPGNKLEYMGYISYTGSTYYNPSLKRRVSITRDTSKNNYYLQLNSVTTEDTATYYCARYRDWPGYFDVWGAGTTVTVSS
VL: DVQITQSPSYLAASPGETITINCRASKSIRKFLAWYQEKPGKTNKLLIYSGSTLQSGIPSRFSGSGSGTDFTLTISTLEPEDFAVYYCQHYNEYPFTFGGGTKLEIK
Regarding B2, in assay [3], the binding entry is “binds”.

B3: Hu58A-14-PE (antibody, IgG4, V domains shown)
VH: EVQLLESGGGLVQPGGSLRLSCAASGFIFSRFGMAWVRQTPDKRLEWVATISSGGSYTYYPDSVKGRLTISRDNAKTTLYLQMRSLKSEDTAMYYCARQGLLDYLYALDYWGQGTAVTVSS
VL: DIQMTQSPSSVSASIGDRVTITCKASQDINSFLAWFQQKPGKSPRPLIYRAYRLVDGVPSRFSGVGSGQDYSLTISSLDYEDLGIYYCQQYVEFPPTFGAGTMLELK
For the molecule B3, the binding entry in assay [1] and in assay [2] was “binds” throughout.

B4: Hu26T-31-PE (antibody, IgG4, V domains shown)
VH: QVQLVQSGAEVKKPGASVKVSCKASGYTFTDYYMNWVRQAPGQGLEWIGRIYPGSGLTYYNAKFKGRATVTADKSTSTVYMELSSLRSEDTAVYYCARTSYGSSFPHVWGQGTTVTVSS
VL: DIQMTQSPSSLSASVGDRVTITCKSSQSLLNVNDQKNYLAWYQQKPGKAPKLLIYFASTRESGVPSRFSGSGSGTDFTLTISSLQPEDFATYYCQQHYSTPLTFGQGTKLEIK
With B4, the binding entry in assay [1] and in assay [2] was “binds” throughout.

B5: Hu34-39-PE (antibody, IgG4, V domains shown)
VH: QVQLQESGPGLVKPSQTLSLTCKASGYTFTNYWITWVKQRPGQGLEWIGDITPGRGETNYNQKFKGRVTLTVDISASTAYMELSSLRSEDTAVYYCSRWGLRRGDYWGQGTSVTVSS
VL: EIVLTQSPGTLSLSPGERATLSCRASSSVSSSYLNWYQQKSGASPKLWIYSTSNLASGVPGRFSGSGSGTSYSLTISSVEAEDAATYYCQQYSGYPLTFGAGTKLEVK
In the case of B5, the binding entry in assay [1] and in assay [2] was “binds” in each case.

B6: SHS009PL-18 (antibody, V domains shown)
VH: QVQLQQPGAELVRPGTSVNLSCKASGYSFTSNWMNWVKQRPGQGLEWIGMIHLYDSETKLNPNFQDKATLTVDKSSSIAYMQLSSPTSEDSAVYYCARSAGNYRFAYWGQGTLVTVSA
VL: SIVMTQTPKFLPVTAEDRVTITCKASQSVSNEVAWYQQKPGQSPKLLIYSASSRYTGVPDRFIGGGSATDFTFTISSVQVEDLAVYFCQQHYSSPLTFGAGTKLELK
For B6, the binding entry in assay [3] is “binds”.

B7: SHS009PL-16 (antibody, V domains shown)
VH: QVQLQQSGAELARPGASVKMSCKASGYTFTRNTMHWIKQRPGQGLEWIGFIDPHNTYTRYNQKFKDRATLTADKSSSTAYMQLSSLSSEDSAVYYCARWPMDYWGQGTSVTVSS
VL: DIVMTQFPSSLAVTAGEKVTMRCKSSQSLSWSENQNNYLSWYQQKQGQPPKLLIYGASIRESWVPDRFTGSGSGTDFTLTISNVHAEDLGVYFCQHNHGSFLPYTFGGGTKLEIK
Take B7: the binding result in assay [3] is recorded as “binds”.

Source of the values: patent US20230090014A1.
